Experimental data reported in PubChem BioAssay AID504834 (National Center for Advancing Translational Sciences (NCATS), 2011).
About 22,000 (6.9%) of roughly 320,000 compounds were called active. The shares of active, inactive and inconclusive entries below differ from those in the screen. Calls follow the shape of the dose curve; as a rule, active = well fitted inhibition curve with a large enough effect; inconclusive = small, poorly fitted or top-dose-only effect, or another doubt; inactive = no such curve, though single readings can be large or run the other way. Potencies of inconclusive entries are doubtful fits and often do not repeat.

experiment: Primary qHTS for delayed death inhibitors of the malarial parasite plastid, 96 hour incubation; conditions: P. falciparum luciferase reporter growth; series mostly up to 28.7 µM; activity change, negative = inhibition: at the top concentration
Outline: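 96 h incubation, 37 C, 5% CO2, of luciferase-reporter P. falciparum-infected RBCs (2% hematocrit, 0.05% parasitemia final) with test compounds; endpoint luminescence.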
% is scaled to controls: 0 for no effect and ±100 for the full control effect; potency is read from the fitted curve at half-maximal effect.

| SMILES | Potency | activity change, negative = inhibition |
| --- | --- | --- |
| COc1ccc(C/C(N)=N/OC(=O)C(c2ccccc2)c2ccccc2)cc1OC | inconclusive: 7.38 µM [inhibitor, partial curve] |  |
| CN1CCN(NC(=O)c2cccs2)CC1 |  | inactive: -5.36% |
| Cc1cc(NS(=O)(=O)c2ccc(C(C)C)cc2)no1 | inconclusive: 13.1 µM [inhibitor, single point] |  |
| COc1ccc(OC2CCN(S(=O)(=O)c3ccc(F)cc3)CC2)cc1 |  | inactive: -19.1% |
| CCCc1cc(C(=O)Nc2cc(OC)ccc2OC)cs1 |  | inactive: -30% |
| O=C(O)c1ccccc1S(=O)(=O)Cc1ccccc1 | inconclusive: 0.329 µM [inhibitor, full curve, poor fit] |  |
| CNC(=O)NC(=O)COC(=O)c1ccccc1OCc1ccccc1 |  | inactive: 38% |
| O=C(c1nc2ccccn2c1CNCC1OCCc2ccccc21)N1CCOCC1 (stereo not drawn) | active: 11.7 µM |  |
| CC(NCc1ccccc1)c1ccccc1O (stereo not drawn) | active: 10.4 µM |  |
| O=C(c1ccc(NS(=O)(=O)c2ccc3[nH]c(=O)[nH]c3c2)cc1)N1CCN(c2ccccc2)CC1 |  | inactive: -16.5% |
| CN(c1ccc(OCC(=O)N2CCC(C(N)=O)CC2)cc1)S(=O)(=O)c1cccs1 | inconclusive: 9.28 µM [inhibitor, single point] |  |
| O=C(CSc1nnc(NC(=O)c2ccccc2F)s1)NCC1CCCO1 (stereo not drawn) |  | inactive: 85.1% |
| O=c1[nH]c(=O)n(CCC2=CCCCC2)c(O)c1/C=N/Nc1cccc2ccccc12 | inconclusive: 0.0026 µM [inhibitor, full curve, poor fit] |  |
| Cc1ccc(N(CC(=O)Nc2cc(Cl)ccc2Oc2ccccc2)S(C)(=O)=O)c(C)c1 | active: 11.7 µM |  |
| Brc1cc2c(cc1Br)OCCOCCOCCO2 |  | inactive: 3.77% |
| CCNC(=S)N1C2CCC1CC(NC(=O)Nc1ccc(C(=O)OCC)cc1)C2 (stereo not drawn) | inconclusive: 14.7 µM [inhibitor, single point] |  |
| O=C(O)C1CCN(C(=O)Cc2ccccc2)CC1 | inconclusive: 11.7 µM [inhibitor, single point] |  |
| Cc1nn(-c2ccc(C(=O)O)cc2)c(C)c1Oc1ccccc1O |  | inactive: -25.4% |
| Cc1ccc(CNC(=O)C2(C)Oc3ccccc3NC2=O)cc1 (stereo not drawn) |  | inactive: 2.41% |
| Cc1cc(CN2CCCC(CNC(=O)c3ccc(F)cc3)C2)cc(C)c1O (stereo not drawn) |  | inactive: 12.5% |
| O=C(Cc1cccc(C(F)(F)F)c1)Nc1cc(S(=O)(=O)N2CCOCC2)ccc1N1CCCC1 | inconclusive: 18.5 µM [inhibitor, single point] |  |
| COc1ccccc1Nc1nc(-c2ccccc2O)nc2ccccc12 | inconclusive: 9.28 µM [inhibitor, partial curve, poor fit] |  |
| Cc1cc(-c2ccccc2)nc(N(C)NC(=O)c2cccc(C(F)(F)F)c2)c1S(C)(=O)=O | active: 3.7 µM |  |
| Fc1ccc(C2CCCN2Cc2nc(Cc3ccccc3F)no2)cc1 (stereo not drawn) | inconclusive: 13.1 µM [inhibitor, single point] |  |
| O=C1CSC(c2ccncc2)N1Cc1ccco1 (stereo not drawn) | inconclusive: 7.38 µM [inhibitor, partial curve, poor fit] |  |

Entries above that contain fluorine:

| SMILES | Potency | activity change, negative = inhibition |
| --- | --- | --- |
| COc1ccc(OC2CCN(S(=O)(=O)c3ccc(F)cc3)CC2)cc1 |  | inactive: -19.1% |
| O=C(CSc1nnc(NC(=O)c2ccccc2F)s1)NCC1CCCO1 (stereo not drawn) |  | inactive: 85.1% |
| Cc1cc(CN2CCCC(CNC(=O)c3ccc(F)cc3)C2)cc(C)c1O (stereo not drawn) |  | inactive: 12.5% |
| O=C(Cc1cccc(C(F)(F)F)c1)Nc1cc(S(=O)(=O)N2CCOCC2)ccc1N1CCCC1 | inconclusive: 18.5 µM [inhibitor, single point] |  |
| Cc1cc(-c2ccccc2)nc(N(C)NC(=O)c2cccc(C(F)(F)F)c2)c1S(C)(=O)=O | active: 3.7 µM |  |
| Fc1ccc(C2CCCN2Cc2nc(Cc3ccccc3F)no2)cc1 (stereo not drawn) | inconclusive: 13.1 µM [inhibitor, single point] |  |

Remaining list, next part:

| SMILES | Potency | activity change, negative = inhibition |
| --- | --- | --- |
| COc1ccc(NC(=O)c2ccc(NC(=O)CCS(=O)(=O)c3cccs3)cc2)cc1 | inconclusive: 18.5 µM [inhibitor, partial curve, poor fit] |  |
| CCO[C@@H]1OC(C(=O)NC2CC2)=C[C@H](C2CC2)[C@H]1CCCO |  | inactive: 51.8% |
| O=C(CSc1nc2ccccc2c(=O)n1-c1ccccc1)NC(=O)CN1CCCC1=O |  | inactive: -10.9% |
| Cc1ccc(C)c(S(=O)(=O)N2CCCCC2CCNC(=O)C(=O)NC2CCCC2)c1 (stereo not drawn) | inconclusive: 11.7 µM [inhibitor, single point] |  |
| COc1cc(CC(=O)NCC2COc3ccccc3O2)cc(OC)c1OC (stereo not drawn) |  | inactive: 2.78% |
| Cc1onc(C(=O)N2CCOCC2)c1[N+](=O)[O-] | inconclusive: 11.7 µM [inhibitor, partial curve] |  |
| CC(=O)NC(Cc1ccccc1)C(=O)NC1CCN(C(=O)NC2CCCCC2)CC1 (stereo not drawn) |  | inactive: 7.61% |
| O=C(NC1CCCc2ccccc21)C1CCN(S(=O)(=O)c2cccc(C(F)(F)F)c2)CC1 (stereo not drawn) | inconclusive: 18.5 µM [inhibitor, single point] |  |
| Cc1ccc(Oc2cc(NC(=O)CCCn3nc([N+](=O)[O-])c(Cl)c3C)cc([N+](=O)[O-])c2)cc1 | inconclusive: 18.5 µM [inhibitor, single point] |  |
| Cc1sc2ncnc(N3CCC(C(=O)Nc4ccc(Cl)c(Cl)c4)CC3)c2c1C | inconclusive: 18.5 µM [inhibitor, single point] |  |
| COc1ccccc1NC(=O)CSCc1ccc([N+](=O)[O-])cc1 |  | inactive: 26.9% |
| N#Cc1nc(COc2cccc(Cl)c2)oc1NCc1ccncc1 | inconclusive: 5.86 µM [inhibitor, partial curve] |  |
| Cc1ccc(S(=O)(=O)N(c2nc(NC(C)C)nc(NC(C)C)n2)n2cnnc2)cc1 |  | inactive: -8.06% |
| COc1cccc(C(=O)Nc2ccc(C(=O)O)cc2)c1 | inconclusive: 0.0033 µM [inhibitor, full curve, poor fit] |  |
| COCCNC(=O)c1c(CS(=O)(=O)c2ccccc2)noc1C(=O)NCc1ccccc1 | inconclusive: 1.04 µM [inhibitor, partial curve, poor fit] |  |
| Cc1cc(NS(=O)(=O)c2ccc(NC(=S)NC(=O)c3ccc(C(C)(C)C)cc3)cc2)no1 | inconclusive: 18.5 µM [inhibitor, single point] |  |
| Cc1ccc(S(=O)(=O)N2CCCC(C(=O)NCc3cccnc3)C2)cc1Cl (stereo not drawn) | inconclusive: 1.85 µM [inhibitor, full curve] |  |
| CN(C)C(CNC(=S)Nc1ccc(F)cc1)c1cccnc1 (stereo not drawn) |  | inactive: 50.2% |
| COc1ccc(CCNC(=O)CSc2nc3[nH]ncc3c(=O)n2-c2ccc(C)c(Cl)c2)cc1OC | inconclusive: 3.29 µM [inhibitor, full curve] |  |
| CCc1c(C)[nH]n(-c2nc(-c3cccc([N+](=O)[O-])c3)cs2)c1=O |  | inactive: 8.49% |
| O=C1/C(=N\S(=O)(=O)c2cccs2)C([n+]2ccccc2)=C([O-])c2ccccc21 | inconclusive: 1.47 µM [inhibitor, full curve] |  |
| O=C(c1cccc([N+](=O)[O-])c1)c1ccc2c(c1)OCCOCCOCCOCCO2 |  | inactive: 128% |
| CC(=O)Nc1ccc(C(=O)COC(=O)CCc2ccccc2)c(F)c1 | inconclusive: 9.28 µM [inhibitor, single point] |  |
| O=S(=O)(NCc1ccncc1)c1ccccc1 |  | inactive: -88% |
| CC(C)C1=NN(C(=O)c2cccnc2)C(O)(C(F)(F)F)C1 (stereo not drawn) |  | inactive: 36.2% |

| SMILES | Potency | activity change, negative = inhibition |
| --- | --- | --- |
| COc1cc(S(=O)(=O)NCc2ccncc2)c(OC)cc1Cl |  | inactive: -83.7% [at 5.75 µM] |
| O=C(CCN1C(=O)/C(=C\C=C\c2ccccc2)SC1=S)Nc1cccc(C(=O)O)c1 | inconclusive: 1.65 µM [inhibitor, full curve, poor fit] |  |
| COc1ccc(-c2nc(CSCC(=O)NC3CC3)c(C)o2)cc1OC |  | inactive: 60.2% |
| CC1CCc2c(C(=O)Oc3cccc(-n4cnnn4)c3)csc2C1 (stereo not drawn) | inconclusive: 18.5 µM [inhibitor, single point] |  |
| CCc1cccc(NC(=O)CN(c2ccc(C)cc2)S(=O)(=O)c2c(C)noc2C)c1 | inconclusive: 13.1 µM [inhibitor, single point] |  |
| CCc1cccc(NC(=O)CCc2nc(-c3cccs3)no2)c1 | inconclusive: 10.4 µM [inhibitor, single point] |  |
| COc1ccc(C)cc1-n1c(SCC(=O)Nc2cc(C)on2)nc2sc(C)c(C)c2c1=O |  | inactive: 33.3% |
| CC1CC(C)(C)CC2(C1)NC(=O)N(CC(=O)NCc1ccccc1F)C2=O (stereo not drawn) | inconclusive: 18.5 µM [inhibitor, single point] |  |
| COc1ccc(/C=C(\C#N)C(=O)NCc2cccs2)cc1OC | inconclusive: 18.5 µM [inhibitor, single point] |  |
| CC(=O)c1cccc(NC(=O)CCNS(=O)(=O)c2cccc3nsnc23)c1 | inconclusive: 16.5 µM [inhibitor, single point] |  |
| Cn1nc(C(F)(F)F)c(C(=O)Nc2ccc(F)cc2F)c1Sc1ccc(C(F)(F)F)cc1 | active: 8.28 µM |  |
| CCN(CC)CCN1C(=O)C2C3c4ccccc4C(c4ccccc43)C2C1=O (stereo not drawn) | active: 5.22 µM |  |
| O=C(O)c1cc2nc(-c3cccs3)cc(C(F)(F)F)n2n1 |  | inactive: 0% |
| Cn1nc(C(=O)NC2CCCCC2)c2c1-c1ccccc1SC2 | inconclusive: 6.57 µM [inhibitor, partial curve] |  |
| COc1ccc(N2CC(C(=O)Nc3nc(-c4ccccc4)c(C(C)=O)s3)CC2=O)c(OC)c1 (stereo not drawn) | inconclusive: 18.5 µM [inhibitor, single point] |  |
| CCN(CCn1cccn1)C(=O)CCc1nnc(-c2ccc3c(c2)OCO3)o1 | inconclusive: 9.28 µM [inhibitor, single point] |  |
| Cc1ccc(N2CC(NC(=O)N3CCN(C(=O)c4ccco4)CC3)CC2=O)cc1 (stereo not drawn) |  | inactive: 0.893% |
| COc1cc(Cl)c(CC(=O)c2c[nH]c3ccccc23)cc1OC | inconclusive: 10.4 µM [inhibitor, partial curve] |  |
| CC(C)N1CC(O)=C(c2ccccc2)C1=N |  | inactive: 26.6% |
| COc1ccc(C(=O)Nc2ccc(N3CCCC3)cc2)cc1OC | inconclusive: 13.1 µM [inhibitor, single point] |  |
| CCn1c(-c2ccccc2)c(C(=O)CCl)c2ccccc21 | inconclusive: 0.117 µM [inhibitor, partial curve, poor fit] |  |
| Cc1ccc(-n2ncc3c(=O)n(CC(=O)N(C(C)C)C(C)C)cnc32)cc1 | active: 13.1 µM |  |
| COCc1cc(C)nc(SCC[N+](C)(C)CC(=O)Nc2cccc(C(F)(F)F)c2)c1C#N | inconclusive: 0.329 µM [inhibitor, full curve, poor fit] |  |
